Laboratory results from patent publication US20230348854A1 (SEATTLE CHILDREN S HOSPITAL D B A SEATTLE CHILDREN S …, published 2023).

The chains behind the UniProt entries cited, without tags or fusion partners. Residues count along the entry.
UniProt O76036, 22-304 Q82K limits assumed: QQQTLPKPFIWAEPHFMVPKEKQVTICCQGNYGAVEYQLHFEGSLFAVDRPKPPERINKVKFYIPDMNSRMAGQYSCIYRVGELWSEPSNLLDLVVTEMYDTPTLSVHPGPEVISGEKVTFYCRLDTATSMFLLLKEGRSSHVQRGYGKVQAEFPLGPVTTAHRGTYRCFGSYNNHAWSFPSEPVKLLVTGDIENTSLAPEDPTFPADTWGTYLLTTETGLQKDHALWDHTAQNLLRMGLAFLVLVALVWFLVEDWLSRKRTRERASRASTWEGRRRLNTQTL

Target: Human NKp46 (NCR1, CD335), on cells (human, UniProt O76036 22-304)
Assay: cell-based or functional assay

- CD137 upregulation in αNKp46 CAR T cells against NK92 cells, fold over αCD19 CAR T cells: 6 fold
- IFNγ expression of NK cells cultured with αNKp46 CAR T cells, fold over NK cells cultured with αCD19 CAR T cells: 3.5 fold
- TNFα expression of NK cells cultured with αNKp46 CAR T cells, fold over NK cells cultured with αCD19 CAR T cells: 1.8 fold
- percentage of CAR T (BFP+) cells expressing CD137, fold increase against CD19 CAR T cells mixed with the same NKp46+ target cells: 5 fold
- percentage of anti-NKp46 CAR T cells with intracellular IFN-γ expression, fold increase relative to CD19 CAR T cells mixed with NKp46+ target cells: 9 fold
- percentage of anti-NKp46 CAR T cells with intracellular IL-2 expression, fold increase relative to CD19 CAR T cells mixed with NKp46+ target cells: 10.5 fold
- percentage of anti-NKp46 CAR T cells with intracellular TNF-α expression, fold increase relative to CD19 CAR T cells mixed with NKp46+ target cells: 11 fold
- percentage of autologous NK cells expressing IFN-γ or TNF-α after contact with anti-NKp46 CAR T cells, fold increase (lower end): 2 to 3 fold
- percentage of autologous NK cells expressing IFN-γ or TNF-α after contact with anti-NKp46 CAR T cells, fold increase (upper end): 2 to 3 fold
- reduction of the percentage of NKp46+ K562 cells after 24 hours, 2:1 ratio: 70%
B1: anti-NKp46 CAR (αNKp46 CAR), expressed on primary human T cells (scFv)
chain: DIVMTQAAPSIPVTPGESVSISCRSSKSLLYINGNTHLFWFLQRPGQSPQLLIYRMSNLASGVPDRFSGSGSGTAFTLRISRVEAEDVGVYYCMQHLEYPFTFGSGTKLEIKGGGGSGGGGSGGGGSEIQLQQSGAELVKPGASVKLSCTASGFNIKDTYFHWVKQRPEQGLEWIGRIDPANGNTKYDPKFHDKATIIADISSNTAYLQFSSLTSEDTAVYYCAANRYGYWGQGTTLTVSSAKPTTTPAPRPPTPAPTIASQPLSLRPEACRPAAGGAVHTRGLDFACDIYIWAPLAGTCGVLLLSLVITKRGRKKLLYIFKQPFMRPVQTTQEEDGCSCRFPEEEEGGCELRVKFSRSADAPAYQQGQNQLYNELNLGRREEYDVLDKRRGRDPEMGGKPRRKNPQEGLYNELQKDKMAEAYSEIGMKGERRRGKGHDGLYQGLSTATKDTYDALHMQALPPR
